Source: PubChem BioAssay AID590 (National Center for Advancing Translational Sciences (NCATS), 2007)
Among all 59,000 compounds or so, about 6,500 (11%) were called active. The shares of active, inactive and inconclusive entries below differ from those in the screen. Cut-off read from the data, not from the text of the source: active = max dye-equivalent concentration above about 10 nM; inconclusive = mostly about 1.1 nM to 9.6 nM; inactive = weaker than that.

Test: qHTS Assay for Spectroscopic Profiling in A350 Spectral Region
Conditions: Compound autofluorescence, 340/450 nm, Alexa 350 dye-equivalents; hits give high values
With `COC(=O)C1=C(C)NC2=C(C(=O)CC(C)(C)C2)C1c1cccc(C)n1` (stereo not drawn) the max dye-equivalent concentration was active: 600 nM. With `Cc1ccc(NC(=O)Cn2nc(C)c3ccccc3c2=O)c(C)c1` the max dye-equivalent concentration was inconclusive: 1.1 nM. With `CN(C)S(=O)(=O)c1ccc(NC(=O)c2cc3ccccc3o2)cc1` the max dye-equivalent concentration was active: 27 nM. In the case of `CCC(CC)c1nc(NCCC(=O)O)c2ccccc2n1`, the max dye-equivalent concentration is reported as inconclusive: 6.4 nM. With `COc1ccc2[nH]cc(C(=O)CN3CCC(C)CC3)c2c1` the max dye-equivalent concentration was inconclusive: 1.2 nM. For `COCCN1C(=O)c2oc3cc(C)c(C)cc3c(=O)c2C1c1cccc(O)c1` (stereo not drawn), the max dye-equivalent concentration was “inactive”. In the case of `COc1ccccc1N=c1scc(-c2ccc3c(c2)NC(=O)CO3)n1CC1CCCO1` (stereo not drawn), the max dye-equivalent concentration is reported as inconclusive: 1.9 nM. In the case of `NC(=NCCC[C@H](N)C(=O)O)NO`, the max dye-equivalent concentration is reported as “inactive”. For `Cc1ccc2nc(Nc3nc(C)cc(C(F)(F)F)n3)nc(C)c2c1`, the max dye-equivalent concentration was inconclusive: 3.3 nM. In the case of `N#Cc1c(C(F)(F)F)cc(-c2ccccc2)nc1SCc1nc(N)nc(N2CCOCC2)n1`, the max dye-equivalent concentration is reported as inconclusive: 9.1 nM. In the case of `COC(=O)C1=C(C)Nc2ncnn2C1c1ccc(OCc2ccccc2)cc1` (stereo not drawn), the max dye-equivalent concentration is reported as inconclusive: 4.6 nM. For `CS(=O)(=O)Nc1cccc(-c2cncnc2Nc2ccccc2)c1`, the max dye-equivalent concentration was “inactive”. With `O=C1CCCC2=C1C(c1c(Cl)nc3sccn13)C1=C(CCCC1=O)N2` the max dye-equivalent concentration was inconclusive: 4.6 nM. For `CCNc1ncc2ncc(=O)n(Cc3cccs3)c2n1`, the max dye-equivalent concentration was active: 21 nM. In the case of `CCc1cc2c(CN3CCN(CC)CC3)cc(=O)oc2cc1O`, the max dye-equivalent concentration is reported as active: 13000 nM. With `O=C(CC1C(=O)NCCN1C(=O)Nc1ccccc1)Nc1ccc2c(c1)OCO2` (stereo not drawn) the max dye-equivalent concentration was inconclusive: 1.6 nM. With `CCCOC(=O)c1[nH]c2c(c1C)C(=O)CC(c1ccc(OC)c(OC)c1)C2` (stereo not drawn) the max dye-equivalent concentration was “inactive”. In the case of `CCOC(=O)c1cnc2cc3c(cn2c1=O)CCCC3`, the max dye-equivalent concentration is reported as active: 2300 nM. In the case of `C#CCOC(=O)c1ccccc1C(=O)N(CC)CC`, the max dye-equivalent concentration is reported as inconclusive: 3.4 nM. In the case of `Cn1c(=O)c2c(nc(NCCCN3CCOCC3)n2Cc2ccc(Cl)cc2Cl)n(C)c1=O`, the max dye-equivalent concentration is reported as inconclusive: 1.2 nM. For `CCOC(=O)CN(Cc1ccccc1)S(=O)(=O)c1ccc(NC(C)=O)cc1`, the max dye-equivalent concentration was inconclusive: 1.3 nM. For `COc1ccc2c(c1)OCC1=C2CCC2(C)C(=O)CC=C12` (stereo not drawn), the max dye-equivalent concentration was active: 200 nM. In the case of `Cc1ccc2cc(S(=O)(=O)NCCCC(=O)O)ccc2c1`, the max dye-equivalent concentration is reported as “inactive”. In the case of `N#Cc1nc(-c2ccccc2)oc1N1CCCCC1`, the max dye-equivalent concentration is reported as active: 150 nM. In the case of `COC(=O)c1c(NC(=O)c2ccoc2C)sc2c1CCC2`, the max dye-equivalent concentration is reported as active: 72 nM. With `COCCn1c(=O)c(-c2ccc(OC)cc2)nc2cnc(N3CCNCC3)nc21` the max dye-equivalent concentration was active: 27 nM. With `COC(=O)c1ccccc1NC(=O)Nc1cccnc1` the max dye-equivalent concentration was inconclusive: 4.7 nM. In the case of `COc1ccccc1OCCn1cc(C(=O)c2ccco2)c2ccccc21`, the max dye-equivalent concentration is reported as inconclusive: 9.2 nM. In the case of `CC1=C(C(=O)NCc2ccccc2)C(c2cccs2)n2ncnc2N1` (stereo not drawn), the max dye-equivalent concentration is reported as inconclusive: 3.3 nM. For `Cc1cccc(-n2ncc3c(NCc4ccccn4)ncnc32)c1`, the max dye-equivalent concentration was inconclusive: 2.6 nM. For `Cc1ccc(C(CC(=O)N2CCOCC2)c2ccco2)cc1` (stereo not drawn), the max dye-equivalent concentration was “inactive”. In the case of `CCCCc1c(C)nn(-c2nnc3c4ccccc4n(CC)c3n2)c1C`, the max dye-equivalent concentration is reported as active: 10 nM. In the case of `CCOC(=O)CC(=O)CSc1nc2c(cc1C#N)CCCCCC2`, the max dye-equivalent concentration is reported as active: 24 nM. For `O=C1CC(N2CCC(C(=O)N3CCCCC3)CC2)C(=O)N1` (stereo not drawn), the max dye-equivalent concentration was inconclusive: 2.1 nM. In the case of `N#Cc1cccc(-c2cc(-n3ccnc3)ncn2)c1`, the max dye-equivalent concentration is reported as inconclusive: 9.4 nM. For `COc1cccc(Cn2c(OCC3CCCO3)nc3c2c(=O)n(C)c(=O)n3C)c1` (stereo not drawn), the max dye-equivalent concentration was “inactive”. In the case of `COC(=O)CSc1nnc(-c2cccs2)n1-c1ccc(Cl)cc1`, the max dye-equivalent concentration is reported as “inactive”. In the case of `COC(=O)c1ccc(C2C3=C(Nc4nnnn42)c2ccccc2OC3)cc1` (stereo not drawn), the max dye-equivalent concentration is reported as active: 74 nM. In the case of `Cc1cccc(NC(=O)C23CCC(C)(/C(=N/O)C2)C3(C)C)c1` (stereo not drawn), the max dye-equivalent concentration is reported as active: 15 nM. For `Cc1cc2c(C)nc(Cc3ccccc3)nc2o1`, the max dye-equivalent concentration was inconclusive: 5.8 nM. In the case of `c1ccc(Cn2nnnc2C(c2cccnc2)N2CCN(c3ccccc3)CC2)cc1` (stereo not drawn), the max dye-equivalent concentration is reported as “inactive”. With `O=C(NCCc1cccc(F)c1)[C@@H]1CSC2c3ccccc3C(=O)N21` (stereo partly drawn) the max dye-equivalent concentration was “inactive”. With `N#Cc1cnn(-c2ccccc2)c1N` the max dye-equivalent concentration was “inactive”. For `CCOC(=O)c1sc(=N)n(-c2ccc(OC)cc2)c1C`, the max dye-equivalent concentration was inconclusive: 2 nM. With `CCNC(=O)C1CC(=O)N(Cc2ccc(F)cc2)C(=Nc2ccc(OC)cc2)S1` (stereo not drawn) the max dye-equivalent concentration was inconclusive: 1.1 nM. For `O=C(c1cccc(F)c1)N1CCC2(CC1)CN(c1ccncc1)C2`, the max dye-equivalent concentration was “inactive”. For `COc1ccc(-c2cc(=O)oc3c(C)c(OCc4nn[nH]n4)ccc23)cc1`, the max dye-equivalent concentration was inconclusive: 6.4 nM. For `CC(=O)OCc1cc(=O)n(C)c(=O)n1C`, the max dye-equivalent concentration was “inactive”. In the case of `COC(=O)Nc1ccc(S(=O)(=O)N2CCCc3ccccc32)cc1`, the max dye-equivalent concentration is reported as inconclusive: 5.7 nM. For `CSc1nc2sc3c(c2c(=O)[nH]1)CCC(C)C3` (stereo not drawn), the max dye-equivalent concentration was inconclusive: 3.3 nM. With `CCOC(=O)C1CCCN(C(=O)CCn2nc(-c3ccccc3)ccc2=O)C1` (stereo not drawn) the max dye-equivalent concentration was inconclusive: 1.1 nM. With `COc1ccc2[nH]c(=O)c(CN(Cc3ccc4c(c3)OCO4)C(C)=O)cc2c1` the max dye-equivalent concentration was active: 83 nM. For `Cc1cc(N2C(=O)C(=O)/C(=C(/O)c3ccccc3)C2c2cccc(Br)c2)no1` (stereo not drawn), the max dye-equivalent concentration was inconclusive: 2.3 nM. For `O=C(CSc1nnc(Cc2cc(=O)[nH]c(=O)[nH]2)n1-c1ccccc1)N1CCCC1`, the max dye-equivalent concentration was inconclusive: 5 nM. In the case of `O=S(=O)(c1cccs1)N1CCN(C/C=C/c2ccccc2)CC1`, the max dye-equivalent concentration is reported as inconclusive: 2 nM. For `CCN(CC)CCNC(=O)c1cc(Cl)c(N)cc1OC`, the max dye-equivalent concentration was inconclusive: 1.2 nM. With `CN(C=C1C(=O)CC(C)(C)CC1=O)CCN1CCNCC1` the max dye-equivalent concentration was inconclusive: 2.3 nM. In the case of `CCc1[nH]c(=O)c(C#N)c2c1CSC(C)(C)C2`, the max dye-equivalent concentration is reported as inconclusive: 4.4 nM. With `COC(=O)/C=c1/s/c(=C(\C#N)C(=O)NCc2ccco2)n(-c2ccc(C)cc2)c1=O` the max dye-equivalent concentration was inconclusive: 2.7 nM. In the case of `O=C(O)CCn1c(=O)c2ccccc2c2ccccc2c1=O`, the max dye-equivalent concentration is reported as inconclusive: 4.2 nM. For `Nc1nc(N)nc(CCCCc2nc(N)nc(N)n2)n1`, the max dye-equivalent concentration was “inactive”. For `Nc1ncnc2c1nc(-c1ccccc1)n2[C@H]1O[C@@H](CO)[C@@H](O)[C@H]1O`, the max dye-equivalent concentration was “inactive”. For `CSC1=C(C#N)C(c2ccccc2Cl)C2=C(CCCC2=O)N1` (stereo not drawn), the max dye-equivalent concentration was active: 33 nM. In the case of `COC(=O)c1cc(OC)c(OC)cc1NC(=O)c1c(C)noc1C`, the max dye-equivalent concentration is reported as “inactive”. In the case of `COc1ccc(C(=O)N2CCC[C@@]3(CCN(C(=O)Nc4cccc(F)c4)C3)C2)cc1`, the max dye-equivalent concentration is reported as “inactive”. In the case of `COc1ccc(Cc2nnc(SCC(=O)Nc3nc(C)cs3)o2)cc1`, the max dye-equivalent concentration is reported as “inactive”. In the case of `CN(C)Cc1c(O)ccc2[nH]cnc12`, the max dye-equivalent concentration is reported as inconclusive: 1.4 nM. In the case of `CC(C)NC(=O)N1CCCC2(CCN(S(=O)(=O)c3ccccc3)CC2)C1`, the max dye-equivalent concentration is reported as “inactive”. With `CCOC(=O)CC(=O)CSc1ccc2nnc(-c3ccccc3)n2n1` the max dye-equivalent concentration was inconclusive: 5 nM. In the case of `CN(C)CCNC(=O)C(C(=O)c1ccc(F)cc1)n1ccccc1=O` (stereo not drawn), the max dye-equivalent concentration is reported as “inactive”. In the case of `CCOc1ccc2[nH]c(=O)c(CN(Cc3nnnn3Cc3ccccc3)CC3CCCO3)cc2c1` (stereo not drawn), the max dye-equivalent concentration is reported as active: 150 nM. In the case of `O=C(/C=C/Nc1ccc(F)cc1)c1ccco1`, the max dye-equivalent concentration is reported as inconclusive: 7 nM. For `CC(=O)c1ccc(N2CCN(C(=O)c3ccc(NC(=O)C4CCCO4)cc3)CC2)cc1` (stereo not drawn), the max dye-equivalent concentration was inconclusive: 8.3 nM. For `Cc1c(NC(=O)c2ccccc2N)cccc1C(=O)O`, the max dye-equivalent concentration was inconclusive: 9.3 nM. With `CC1CC(c2ccccc2)n2nc(N3C(=O)c4ccccc4C3=O)nc2N1` (stereo not drawn) the max dye-equivalent concentration was inconclusive: 1.4 nM. In the case of `COc1ccc(-c2nn(C)c3sc(C(=O)N4CCOCC4)cc23)cc1OC`, the max dye-equivalent concentration is reported as “inactive”. With `Clc1cccc(Cl)c1C(Nc1nncs1)Nc1nncs1` the max dye-equivalent concentration was “inactive”. With `CC1=C(C(=O)Nc2ccc(F)cc2)C(c2ccncc2)C2=C(CCCC2=O)N1` (stereo not drawn) the max dye-equivalent concentration was active: 180 nM. With `CCOC(=O)c1oc2ccccc2c1NC(=O)CN1CCN(C)CC1` the max dye-equivalent concentration was inconclusive: 1.4 nM. For `Clc1ccc(CN2CCCN(Cc3ccc(Cl)cc3)C2c2cc3ccccc3c3ccccc23)cc1`, the max dye-equivalent concentration was “inactive”. In the case of `O=C(c1ccncc1)N1CCC2(CC1)CN(c1ncccn1)C2`, the max dye-equivalent concentration is reported as “inactive”. In the case of `Cn1cccc1C(=O)N1CCC2(CCN(C(=O)Nc3cccc(F)c3)CC2)CC1`, the max dye-equivalent concentration is reported as “inactive”. For `O=c1/c(=C\c2ccc3c(c2)OCO3)sc2n1CCCN=2`, the max dye-equivalent concentration was inconclusive: 6.2 nM. For `CN1CCN(S(=O)(=O)c2ccc(Sc3nc4ccccc4[nH]3)c3nsnc23)CC1`, the max dye-equivalent concentration was active: 14 nM. In the case of `Cn1c2ccccc2c2cc(C(=O)OCC(=O)N3CC(=O)Nc4ccccc43)sc21`, the max dye-equivalent concentration is reported as active: 32 nM. In the case of `Cc1ccnc(SCCn2c(N3CCOCC3)nc3c2c(=O)n(C)c(=O)n3C)n1`, the max dye-equivalent concentration is reported as inconclusive: 1.3 nM. With `COC(=O)[C@H](C)NC(=O)Nc1ccc(C)c(C)c1` the max dye-equivalent concentration was active: 42 nM. For `Cc1cc(C)nc(-n2nc(C)c3c(C(F)F)cc(C)nc32)n1`, the max dye-equivalent concentration was active: 50 nM. For `COc1cc(C(Nc2ccc3c(c2)OCO3)C(=O)NC2CCCCC2)cc(OC)c1OC` (stereo not drawn), the max dye-equivalent concentration was “inactive”. With `CN1CCN(C(=O)c2ccc(-c3nn(C)c(=O)c4ccccc34)cc2)CC1` the max dye-equivalent concentration was inconclusive: 1.4 nM. For `C=CCOC(=O)N1CCN(c2cccc(C(F)(F)F)c2)CC1`, the max dye-equivalent concentration was “inactive”. With `CC(=O)N[C@@H](Cc1c[nH]c2ccccc12)C(=O)OCc1cc(C(F)(F)F)cc(C(F)(F)F)c1` the max dye-equivalent concentration was “inactive”. With `CCCN1Cc2cccc(C(=O)Nc3ccc4c(c3)OCO4)c2C1=O` the max dye-equivalent concentration was inconclusive: 1.1 nM.
